This is one part of the list.
Key:
Assay in all cases: glycan array binding signal (z-score within array); higher = stronger binding
Conditions in all cases: glycan notation: IUPAC condensed, linker removed
[1] = target: Gal(b1-4)GlcNAc(b1-2)Man(a1-6)[GlcNAc(b1-2)Man(a1-3)]Man(b1-4)GlcNAc(b1-4)GlcNAc
Method in brief: (§1)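 The Consortium for Functional Glycomics database supplied 3228 glycan arrays, of which those lacking an available protein sequence were dropped. The binding signal, a within-array Z-score, was averaged across arrays of the same protein sequence and across linkers. Negative scores can be read as non-binding.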

[2] = target: Gal(b1-4)GlcNAc(b1-2)Man(a1-6)[Man(a1-3)]Man(b1-4)GlcNAc(b1-4)GlcNAc
Method in brief: as §1

[3] = target: Gal(b1-4)GlcNAc(b1-2)[Gal(b1-4)GlcNAc(b1-4)]Man(a1-3)[Gal(b1-4)GlcNAc(b1-2)Man(a1-6)]Man(b1-4)GlcNAc(b1-4)GlcNAc
Method in brief: as §1

[4] = target: Gal(b1-4)GlcNAc(b1-2)[Gal(b1-4)GlcNAc(b1-4)]Man(a1-3)[Gal(b1-4)GlcNAc(b1-2)[Gal(b1-4)GlcNAc(b1-6)]Man(a1-6)]Man(b1-4)GlcNAc(b1-4)GlcNAc
Method in brief: as §1

[5] = target: Gal(b1-4)GlcNAc(b1-2)[Gal(b1-4)GlcNAc(b1-4)]Man(a1-3)[GlcNAc(b1-4)][Gal(b1-4)GlcNAc(b1-2)Man(a1-6)]Man(b1-4)GlcNAc(b1-4)GlcNAc
Method in brief: as §1

[6] = target: Gal(b1-4)GlcNAc(b1-2)[Gal(b1-4)GlcNAc(b1-4)]Man(a1-3)[GlcNAc(b1-4)][Gal(b1-4)GlcNAc(b1-2)[Gal(b1-4)GlcNAc(b1-6)]Man(a1-6)]Man(b1-4)GlcNAc(b1-4)GlcNAc
Method in brief: as §1

[7] = target: Gal(b1-4)GlcNAc(b1-2)[Gal(b1-4)GlcNAc(b1-6)]Man(a1-6)[Gal(b1-4)GlcNAc(b1-2)Man(a1-3)]Man(b1-4)GlcNAc(b1-4)GlcNAc
Method in brief: as §1

[8] = target: Gal(b1-4)GlcNAc(b1-2)[Gal(b1-4)GlcNAc(b1-6)]Man(a1-6)[Gal(b1-4)GlcNAc(b1-2)Man(a1-3)]Man(b1-4)GlcNAc(b1-4)[Fuc(a1-6)]GlcNAc
Method in brief: as §1

[9] = target: Gal(b1-4)GlcNAc(b1-2)[Gal(b1-4)GlcNAc(b1-6)]Man(a1-6)[GlcNAc(b1-4)][Gal(b1-4)GlcNAc(b1-2)Man(a1-3)]Man(b1-4)GlcNAc(b1-4)GlcNAc
Method in brief: as §1

[10] = target: Gal(b1-4)GlcNAc(b1-2)[Gal(b1-4)GlcNAc(b1-6)]Man(a1-6)[GlcNAc(b1-4)][Gal(b1-4)GlcNAc(b1-2)[Gal(b1-4)GlcNAc(b1-4)]Man(a1-3)]Man(b1-4)GlcNAc(b1-4)[Fuc(a1-6)]GlcNAc
Method in brief: as §1

[11] = target: Gal(b1-4)GlcNAc(b1-3)Gal(b1-3)GalNAc
Method in brief: as §1

[12] = target: Gal(b1-4)GlcNAc(b1-3)Gal(b1-3)GlcNAc
Method in brief: as §1

[13] = target: Gal(b1-4)GlcNAc(b1-3)Gal(b1-4)Glc
Method in brief: as §1

[14] = target: Gal(b1-4)GlcNAc(b1-3)Gal(b1-4)GlcNAc
Method in brief: as §1

[15] = target: Gal(b1-4)GlcNAc(b1-3)Gal(b1-4)GlcNAc(b1-2)Man(a1-3)[Gal(b1-4)GlcNAc(b1-3)Gal(b1-4)GlcNAc(b1-2)Man(a1-6)]Man(b1-4)GlcNAc(b1-4)GlcNAc
Method in brief: as §1

[16] = target: Gal(b1-4)GlcNAc(b1-3)Gal(b1-4)GlcNAc(b1-2)Man(a1-3)[Gal(b1-4)GlcNAc(b1-3)Gal(b1-4)GlcNAc(b1-2)Man(a1-6)]Man(b1-4)GlcNAc(b1-4)[Fuc(a1-6)]GlcNAc
Method in brief: as §1

[17] = target: Gal(b1-4)GlcNAc(b1-3)Gal(b1-4)GlcNAc(b1-2)[Gal(b1-4)GlcNAc(b1-3)Gal(b1-4)GlcNAc(b1-6)]Man(a1-6)[Gal(b1-4)GlcNAc(b1-3)Gal(b1-4)GlcNAc(b1-2)Man(a1-3)]Man(b1-4)GlcNAc(b1-4)GlcNAc
Method in brief: as §1

[18] = target: Gal(b1-4)GlcNAc(b1-3)Gal(b1-4)GlcNAc(b1-2)[Gal(b1-4)GlcNAc(b1-3)Gal(b1-4)GlcNAc(b1-6)]Man(a1-6)[Gal(b1-4)GlcNAc(b1-3)Gal(b1-4)GlcNAc(b1-2)Man(a1-3)]Man(b1-4)GlcNAc(b1-4)[Fuc(a1-6)]GlcNAc
Method in brief: as §1

[19] = target: Gal(b1-4)GlcNAc(b1-3)Gal(b1-4)GlcNAc(b1-3)Gal(b1-4)GlcNAc
Method in brief: as §1

[20] = target: Gal(b1-4)GlcNAc(b1-3)Gal(b1-4)GlcNAc(b1-3)Gal(b1-4)GlcNAc(b1-2)Man(a1-3)[Gal(b1-4)GlcNAc(b1-3)Gal(b1-4)GlcNAc(b1-3)Gal(b1-4)GlcNAc(b1-2)Man(a1-6)]Man(b1-4)GlcNAc(b1-4)GlcNAc
Method in brief: as §1

[21] = target: Gal(b1-4)GlcNAc(b1-3)Gal(b1-4)GlcNAc(b1-3)Gal(b1-4)GlcNAc(b1-2)Man(a1-3)[Gal(b1-4)GlcNAc(b1-3)Gal(b1-4)GlcNAc(b1-3)Gal(b1-4)GlcNAc(b1-2)Man(a1-6)]Man(b1-4)GlcNAc(b1-4)[Fuc(a1-6)]GlcNAc
Method in brief: as §1

[22] = target: Gal(b1-4)GlcNAc(b1-3)Gal(b1-4)GlcNAc(b1-3)Gal(b1-4)GlcNAc(b1-2)[Gal(b1-4)GlcNAc(b1-3)Gal(b1-4)GlcNAc(b1-3)Gal(b1-4)GlcNAc(b1-6)]Man(a1-6)[Gal(b1-4)GlcNAc(b1-3)Gal(b1-4)GlcNAc(b1-3)Gal(b1-4)GlcNAc(b1-2)Man(a1-3)]Man(b1-4)GlcNAc(b1-4)[Fuc(a1-6)]GlcNAc
Method in brief: as §1

B1: DCIR1 (Mus musculus), Q9QZ15 (protein)
chain: MASEITYAEVKFKNESNSLHTYSESPAAPREKPIRDLRKPGSPSLLLTSLMLLLLLLAITFLVAFIIYFQKYSQLLEEKKAAKNIMHNELNCTKSVSPMEDKVWSCCPKDWRLFGSHCYLVPTVSSSASWNKSEENCSRMGAHLVVIQSQEEQDFITGILDTHAAYFIGLWDTGHRQWQWVDQTPYEESITFWHNGEPSSGNEKCATIIYRWKTGWGWNDISCSLKQKSVCQMKKINL
B1 was tested. Which “glycan array binding signal (z-score)” value [1] did it give?
The value was 0.904.

What about the “glycan array binding signal (z-score)” value [2] of the same binder?
Its value is 0.023.

And the “glycan array binding signal (z-score)” value [3]?
The value was -0.372.

And the “glycan array binding signal (z-score)” value [4]?
Its value is -0.824.

What about the “glycan array binding signal (z-score)” value [5] of the same binder?
Its value is -0.162.

What about the “glycan array binding signal (z-score)” value [6] of the same binder?
The value was 0.65.

What about the “glycan array binding signal (z-score)” value [7] of the same binder?
The value was -0.475.

What about the “glycan array binding signal (z-score)” value [8] of the same binder?
Its value is -0.037.

What about the “glycan array binding signal (z-score)” value [9] of the same binder?
The value was -0.446.

And the “glycan array binding signal (z-score)” value [10]?
The value was -0.026.

What about the “glycan array binding signal (z-score)” value [11] of the same binder?
Its value is -0.978.

And the “glycan array binding signal (z-score)” value [12]?
The value was -0.389.

What about the “glycan array binding signal (z-score)” value [13] of the same binder?
The value was -0.63.

What about the “glycan array binding signal (z-score)” value [14] of the same binder?
Its value is -0.298.

What about the “glycan array binding signal (z-score)” value [15] of the same binder?
The value was 1.45.

What about the “glycan array binding signal (z-score)” value [16] of the same binder?
The value was 0.884.

And the “glycan array binding signal (z-score)” value [17]?
The value was 1.13.

And the “glycan array binding signal (z-score)” value [18]?
Its value is 0.06.

What about the “glycan array binding signal (z-score)” value [19] of the same binder?
The value was 0.272.

What about the “glycan array binding signal (z-score)” value [20] of the same binder?
Its value is 0.668.

And the “glycan array binding signal (z-score)” value [21]?
The value was -0.075.

What about the “glycan array binding signal (z-score)” value [22] of the same binder?
Its value is -0.524.
